These are yes or no findings as the source states them, for the method shown. Binding seen in cells or lysates may run through a third protein. Some binding calls cover weakened binding; strength is not graded here.
Target: wild-type Myc-PHB2 (prohibitin 2) (UniProt Q99623)
Experiment: co-IP; L02 cells co-transfected for 48 h, treated with 400 uM GCDCA for 4 h, lysed in IP/lysis buffer; supernatant incubated with Myc-Tag or Flag-Tag Sepharose bead conjugate overnight at 4 °C; western blot with HA, Flag and Myc antibodies; also SQSTM1 knockdown cells

## Flag-SQSTM1 (sequestosome 1) (from UniProt Q13501 1-440)
  binding: binds
